Reference: article PMC7980222

Chains of the proteins cited; added tags and fusions are not shown. Residues count along the entry.
UniProt Q9UBB5, 139-224: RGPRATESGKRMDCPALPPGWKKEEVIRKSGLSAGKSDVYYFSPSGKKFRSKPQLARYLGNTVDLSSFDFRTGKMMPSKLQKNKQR

Biological target: MBD2[MBD] (human) (UniProt Q9UBB5)
Experiment: EMSA
Details: 2 uM protein, poly(dI-dC); N-term EMSA: 10 mM Tris-HCl pH 7.5, 150 mM KCl, 5% glycerol, 0.1 mM EDTA, 0.1 mg/ml BSA, 1 ug poly(dA-dT), on ice; pull-down at 4 C; recombinant protein; residues 139-224; label: 5'-FAM on strand 1

Binding result, no binding:
TCTGGAACACAATTCTTCTA / ATAGAAGAATTGTGTTCCAG [FAM CAC probe, unmethylated]
TCTGGAACATAATTCTTCTA / ATAGAAGAATTATGTTCCAG [FAM CAT probe, unmethylated]
TCTGGAACGGAATTCTTCTA / ATAGAAGAATTCCGTTCCAG [FAM CG probe, unmethylated]

A negative result means that nothing was seen under these conditions. At least one verdict was read from the data and is not stated in words by the source.
